According to patent US20190160102A1:
These are yes or no findings as the source states them, for the method shown. Some results given as binding are weak or reduced against the parent protein; the word gives no strength. Sequences can lack the tags named with a protein.

By UniProt entry, the sequences of proteins in these tests, tags left out. Where a name states a change or a piece, a line headed by the entry shows the natural chain unless it says otherwise.
UniProt P20138: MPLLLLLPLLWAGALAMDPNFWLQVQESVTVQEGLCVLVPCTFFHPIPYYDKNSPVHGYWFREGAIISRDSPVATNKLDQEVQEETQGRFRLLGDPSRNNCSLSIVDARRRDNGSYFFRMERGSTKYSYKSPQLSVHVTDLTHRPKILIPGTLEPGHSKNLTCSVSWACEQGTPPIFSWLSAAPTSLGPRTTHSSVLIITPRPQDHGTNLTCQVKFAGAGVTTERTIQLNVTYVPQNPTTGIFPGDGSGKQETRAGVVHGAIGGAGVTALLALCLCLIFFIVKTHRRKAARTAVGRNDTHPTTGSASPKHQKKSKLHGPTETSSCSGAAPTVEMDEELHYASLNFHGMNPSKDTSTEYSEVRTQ

Legend:
[1] = biological target: CD33 on MV-4-11 human AML cells (human) (UniProt P20138); test: flow cytometry, cell-cell binding
[2] = biological target: recombinant CD33-HisTag (Homo sapiens (Human)) (UniProt P20138); test: flow cytometry on erythroid cells expressing the construct

B1: HA-αCD33scFv-GPA (anti-CD33 scFv fused to the N-terminus of GPA), expressed on the surface of erythroid cells (scFv)
chain: QVQLVQSGAEVKKPGASVKVSCKASGYTFTNYDINWVRQAPGQGLEWIGWIYPGDGSTKYNEKFKAKATLTADTSTSTAYMELRSLRSDDTAVYYCASGYEDAMDYWGQGTTVTVSSGGGGSGGGGSGGGGSDIQMTQSPSSLSASVGDRVTINCKASQDINSYLSWFQQKPGKAPKTLIYRANRLVDGVPSRFSGSGSGQDYTLTISSLQPEDFATYYCLQYDEFPLTFGGGTKVEIKGGSGGSGGYPYDVPDYAGGSGGSGGMYGKIIFVLLLSEIVSISALSTTEVAMHTSTSSSVTKSYISSQTNDTHKRDTYAATPRAHEVSEISVRTVYPPEEETGERVQLAHHFSEPEITLIIFGVMAGVIGTILLISYGIRRLIKKSPSDVKPLPSPDTDVPLSSVEIENPETSDQ
binding [1]: binds | binding [2]: binds
